Source: PubChem BioAssay AID1508600 (Functional Genomics Laboratory (NCATS/FGL), 2020)
Out of some 53,000 sequences screened, about 3,700 (7%) were called active.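 How the source made its calls: active means gene knockdowns whose robust z-score for IL-1 alpha signal is at least 2 or at most -2, so actives lie on both sides; inactive means the rest.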 This is one part of the list.

assay: Components of the Cytosolic LPS Sensing Pathway: Gene Identification via Genome-wide siRNA Screen; settings: RAW264.7 macrophages, IL-1a HTRF, actives lie on both sides, screened at 100 nM (by protocol), cells primed 5 h with Pam3CSK4 first;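 further: robust z of the log signal after scaling to non-targeting control siRNA wells of the plate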
Method in brief: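 Mouse macrophage line RAW264.7 is transfected with siRNA (100 nM final), grown 48h, primed with TLR ligand Pam3CSK4 5 h and given intracellular LipidA 24 h. IL-1a in supernatant is read by HTRF and viability by luminescence.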

Sequence | z-score
CCCAAAGAAUUAUGAGUGUTT against Gpr149 | inactive: -0.678
GGGUAGUUUAUUUCUUUGCTT against Mlh3 | inactive: 0.826
GGACUUCCAGAGGUACUUGTT against Vmn1r229 | inactive: -1.58
GGGACAAGCCAGAAACAACTT against Col19a1 | inactive: 0.0299
CCAAGCUUGACCCUACACUTT against Olfr1121 | inactive: -0.911
CCGUGUGACAUUUGAGUAUTT against Crhbp | inactive: 1.42
GGCCAUCAGAAGCAAGAUUTT against Akr1c21 | inactive: -0.139
GGAAAUAUUUUCUCAGCAATT against Pcdhga1 | inactive: 1.52
GGAUGACAGUGAAUUAGACTT against Retreg1 | inactive: -1.15
GCCUGAUUAUUUGUAAUUGTT against 4632404H12Rik | inactive: -0.5
CCGUGAUGGUAACAAAUCATT against Phyhipl | inactive: 0.294
GGAGGAGAACCCAUGUAACTT against Tcl1b1 | inactive: -1.25
GCUAGUUAAGAAGCAACAATT against Rpl12 | inactive: -0.641
GGACUUGACCCUGUCUUUGTT against Ostm1 | inactive: 0.871
GCGGCAUGGACUUAGUAAATT against Fbxo5 | active: 3.11
GGAAUCGGAACCAGUUCCCTT against Smyd5 | inactive: 0.689
GGAUCUAUGGACGACCUUCTT against Kcnj10 | inactive: -0.643
GCAGGACAUGUUGUUCCCUTT against Aars2 | inactive: 1.8
GGAAUAGUGAAGGUACUUUTT against Cer1 | active: 2.4
GCCAGAUUUCCGUCAGAACTT against Scube3 | inactive: 0.713
GGACUUCGAGGACUACAUUTT against Abca3 | inactive: 0.283
GCUAAAUGUUCUUCCAUUATT against Pola1 | inactive: -0.186
GGACGAGGUCCUGUCCUUUTT against Ackr2 | inactive: 1.46

Part of the list above, tab-delimited:
Sequence	z-score
GGACUUCCAGAGGUACUUGTT against Vmn1r229	inactive: -1.58
GGGACAAGCCAGAAACAACTT against Col19a1	inactive: 0.0299
CCAAGCUUGACCCUACACUTT against Olfr1121	inactive: -0.911
CCGUGUGACAUUUGAGUAUTT against Crhbp	inactive: 1.42
GGCCAUCAGAAGCAAGAUUTT against Akr1c21	inactive: -0.139
GGAAAUAUUUUCUCAGCAATT against Pcdhga1	inactive: 1.52
GGAUGACAGUGAAUUAGACTT against Retreg1	inactive: -1.15
GGAGGAGAACCCAUGUAACTT against Tcl1b1	inactive: -1.25
GCUAGUUAAGAAGCAACAATT against Rpl12	inactive: -0.641
GGACUUGACCCUGUCUUUGTT against Ostm1	inactive: 0.871
GGAAUCGGAACCAGUUCCCTT against Smyd5	inactive: 0.689
GGAUCUAUGGACGACCUUCTT against Kcnj10	inactive: -0.643
GGAAUAGUGAAGGUACUUUTT against Cer1	active: 2.4
GGACUUCGAGGACUACAUUTT against Abca3	inactive: 0.283
GCUAAAUGUUCUUCCAUUATT against Pola1	inactive: -0.186
GGACGAGGUCCUGUCCUUUTT against Ackr2	inactive: 1.46

More results:

Sequence | z-score
GGAGACACGGAAGCCUGAATT against Klra4 | inactive: -0.137
GGUGAAUGGAACAGGUAAGTT against Gas2l2 | inactive: -1.44
CCUAAAUUUGAGGUAACCUTT against Zbtb21 | inactive: 0.571
GGAGAAUGCCACAACUACATT against Cd320 | inactive: 1.19
GGUUGAAGCCAUAAAGAAATT against Xrcc6 | inactive: 1.65
GAUAAUUGGUUUACAGACUTT against Vmn1r23 | inactive: -0.223
GGCCCAAUAGACAUAUAGCTT against Trim21 | inactive: -0.408
GCGAACACUACUAUCGUUATT against Ipo11 | inactive: -0.0465
GAGCAUCGACAACCUCUCUTT against Hba-x | inactive: 1.73
GCGGGUUUAUUGUCUAGAATT against Mfn2 | inactive: 0.669
GGUGGCUAUGUAAUCUCAGTT against B3gnt8 | inactive: 0.133
GCCUAUACUAUAGAAUUACTT against Sgsm2 | active: 2.2
GCCAACCAGGAUUUUACAATT against Fga | inactive: 0.463
CCAAGAGGGCGAUCAAAUGTT against Grtp1 | inactive: 0.143
GCAUGAAUUUCGACAACCCTT against Lrp8 | inactive: -0.126
GGACAGAACUGGCUUCCAUTT against Ctrb1 | inactive: 2
GGAGUGCUUAAAAUUCAAGTT against Bcap29 | inactive: 1.89
GGAAAGAGAUGAUUGAAAUTT against Cts3 | inactive: 0.0164
GGAGUAUUGGAAGUUACAATT against Ccnc | inactive: -1.34
GGUAUCUCCAGUCCAGAGUTT against Mrpl34 | inactive: -0.585
GGAGGUAGGAGCCAUAAGATT against Pter | inactive: -0.58
GGAGUUCUUCUAGCCAUGUTT against Olfr633 | inactive: 0.0435
GGACAUAGCACGUCUUUUGTT against Ccdc50 | inactive: -0.584

Sequence | z-score
GCUAGUAAACAGAAUCCUCTT against Tubgcp2 | inactive: 1.35
GGAAUCAAUGUGCUUCUAATT against Cyp39a1 | inactive: -0.556
GGAUCUUGGUUACCCUAGUTT against Casp9 | inactive: -1.93
GGACUGCCCUUUGGACAAATT against Vmn1r192 | inactive: 1.37
GCCCAAUCUACACAGACCATT against Slc7a13 | inactive: -0.939
GGUGAGGAGGCAAAGAUUCTT against Fkbpl | inactive: -0.82
GGAGAAUGAAAGGAUUCUGTT against Cabcoco1 | inactive: 0.0483
CCUAAUCUUUGUUCAGACCTT against 4933431E20Rik | inactive: 0.296
CCAUCAGCUUUGCAGGAUGTT against Olfr1410 | inactive: -0.256
CCAAAUCUGGACGGCAAAATT against Sdc1 | inactive: 0.243
GCUUUCUUAGCAUUAAAUCTT against Zkscan3 | inactive: -0.274
CCGUGGGCAAACAAAUCUUTT against Hoxa3 | inactive: -0.525
GGUCUGAGCCUUGUCUUUATT against Pdx1 | active: 2.92
GCCUAGACAAAGUGAUGGATT against Vamp7 | inactive: 0.554
GGAUACGCUUGUCCCACCATT against Mdm1 | inactive: -0.649
GGCUCAUCUACCACGAGGUTT against Lce1m | inactive: 0.778
GGACUUCUUCUUGUACAACTT against Capn3 | inactive: 1.03
GGAGGUGCGCUUCUUUAACTT against Chst5 | inactive: 0.24
CCAUAGUAGCUACCUUGAUTT against Fam107a | inactive: 0.537
GCGACUUAUGAAAUACUGGTT against Ache | inactive: 0.0142
CGAUAAUGAAAGUGACCAUTT against Uri1 | inactive: -0.0814
GGCAAGAUCCACAUCAACUTT against Tmem178b | inactive: -0.9
